Measured values from patent US20080138317A1, “Use of biocompatible amphiphilic polymers as an anti-inflammatory agent” (priority 2004, published 2008).
For at least one compound, name, drawing or mass did not settle the structure.

Tested on: TNF-α release from monocytes
Format: cell-based
Details: human monocytes, OA 50 nM, overnight; troglitazone 30 μm; MGSA polymers 50%
Description: Human monocytes were isolated from freshly collected buffy coat preparations of whole human blood. Briefly, whole blood was diluted 1:1.33 with sterile phosphate buffered solution (PBS) and layered over Histopaque, which was then centrifuged for 30 minutes at 1500 rpm at room temperature. The interface was harvested and washed with PBS, followed by another centrifugation at 1500 rpm for 10 minutes. A final wash was performed in RPMI 1640 with 10% fetal bovine serum (FBS). Cells were counted using a hemacytometer and seeded at 2.4×10^6 cells/300 μl into a 48-well tissue culture treated plate. Cells were incubated for 1 hour at 37° C., 5% CO2 and non-adherent cells were removed with a PBS wash. 300 μl of RPMI 1640 with 10% FBS was added back to the cells along with the various test conditions; cells in media alone, with DMSO (the vehicle used to reconstitue okadaic acid and troglitazone), with okadaic acid (OA, 50 nM), with OA and troglitazone (30 μm), with OA and monostearyl glyceride succinic anhydride (MGSA)-liquid (3305-15, 50%), and with OA and MGSA-solid (2804-60, 50%). The supernatants were collected after overnight incubation at 37° C., 5% CO2 and later analyzed for TNF-α by ELISA.

Structure (SMILES): Cc1c(C)c2c(c(C)c1O)CCC(C)(COc1ccc(CC3SC(=O)NC3=O)cc1)O2 (stereo not shown) [Troglitazone]
- effect on the amount of TNF-α released by monocytes in the presence of OA: significantly decreased
